Results on 1 substance are retold here after PMC12500907.

Results are given in words; binding and its absence hold for the method and conditions named. Binding seen in cells or lysates may run through a third protein. Here binding means that the protein was enriched with, or labelled near, the bait; the list need not be complete.

The target of this assay is Myc-NY-ESO-1 (New York esophageal squamous cell carcinoma 1) (human) (UniProt P78358). Nature of the assay: affinity purification with mass spectrometry; HEK293T transfected with Myc-NY-ESO-1, harvested 48 h later; lysates immunoprecipitated with anti-Myc antibodies; LC-MS/MS.

As to “PP1α, endogenous in HEK293T cells (from UniProt P62136 1-330) (enzyme)”, the binding result is “binds”.
